Values of other authors, collected in US11680281B2, “Biosynthetic production of steviol glycosides and processes therefore” (Conagen Inc., priority 2016, dated 2023).

Details: as noted in taste tests; cited from earlier work

| Structure (SMILES) | after-taste |
| --- | --- |
| C=C1C[C@@]23CC[C@H]4[C@@](C)(CCC[C@@]4(C)C(=O)O[C@@H]4O[C@H](CO)[C@@H](O)[C@H](O)[C@H]4O[C@@H]4O[C@H](CO)[C@@H](O)[C@H](O)[C@H]4O)[C@@H]2CC[C@]1(O[C@@H]1O[C@H](CO)[C@@H](O)[C@H](O)[C@H]1O[C@@H]1O[C@H](CO)[C@@H](O)[C@H](O)[C@H]1O)C3 [rebaudioside E] | much better than stevioside |
| C=C1C[C@@]23CC[C@H]4[C@@](C)(CCC[C@@]4(C)C(=O)O[C@@H]4O[C@H](CO)[C@@H](O)[C@H](O)[C@H]4O)[C@@H]2CC[C@]1(O[C@@H]1O[C@H](CO)[C@@H](O)[C@H](O)[C@H]1O[C@@H]1O[C@H](CO)[C@@H](O)[C@H](O)[C@H]1O)C3 [stevioside] | bitter after-taste |
| C=C1C[C@@]23CC[C@H]4[C@@](C)(CCC[C@@]4(C)C(=O)O[C@@H]4O[C@H](CO)[C@@H](O)[C@H](O)[C@H]4O)[C@@H]2CC[C@]1(O[C@@H]1O[C@H](CO)[C@@H](O)[C@H](O[C@@H]2O[C@H](CO)[C@@H](O)[C@H](O)[C@H]2O)[C@H]1O[C@@H]1O[C@H](CO)[C@@H](O)[C@H](O)[C@H]1O)C3 [rebaudioside A] | much better than stevioside |
